# Experimental data: patent US8093301B2, “Anti-allergic agent” (Meiji Co., Ltd., priority 2005, dated 2012)
# At least one read-out could not be matched to a standard name with certainty.
# System: basophil-like cells (RBL-2H3)
# Experiment: β-hexosaminidase release inhibition test (degranulation of IgE-sensitised, DNP-BSA-stimulated cells)
# Assay type: cell-based
# Settings: RBL-2H3, 30 minutes incubation with test substance, DNP-BSA stimulation; read-out: 50% β-hexosaminidase release inhibitory concentration (IC50)
# Procedure: In the Examples, the degree of cell degranulation was assessed through determination of β-hexosaminidase activity. In a specific procedure, basophil-like cells (RBL-2H3, Human Science Laboratory Resource Bank) were suspended in a Dulbecco's modified Eagle's medium (DMEM, product of Gibco) containing a 10% fetal calf serum, and the suspension was incubated overnight at 37° C. in a 96-well plate (2.5×10^5 cells/mL) in the presence of 0.1 μg/mL anti-dinitrophenyl (DNP)-IgE antibody (product of SIGMA).
# The thus-treated basophil-like cells (RBL-2H3) were washed with phosphate buffer (PBS) and further incubated at 37° C. for 30 minutes in the presence of each test substance (Examples 1 to 6 and Comparative Examples 1 to 3) at a predetermined concentration. The concentrations at which incubation was performed were 0.1, 0.2, 0.3, 0.4, and 0.5 μM (ACNQ); 20, 30, 40, 60, and 80 μM (DHNA); 60, 70, 80, 90, and 100 μM (2-methyl-1,4-naphthoquinone (vitamin K3)); 10, 20, 30, 40, and 50 μM (4-amino-2-methyl-1-naphthol (vitamin K5)); 10, 20, 30, 40, and 50 μM (1,4-naphthoquinone); 3, 4, 5, 6, and 7 μM (2-amino-3-chloro-1,4-naphthoquinone); 50 and 100 μM (vitamin K1); 25, 50, and 100 μM (vitamin K2); and 50 and 100 μM (1,3-naphthalenediol).
# The thus-incubated basophil-like cells (RBL-2H3) were washed with PBS, and further incubated at 37° C. for one hour in the presence of 1-μg/mL DNP-BSA (product of SSL). After completion of incubation, a supernatant was recovered from each well, and the activity of β-hexosaminidase contained in each supernatant was determined. The activity of β-hexosaminidase remaining in the cells was also determined through solubilizing the remaining cells with 0.1% polyoxyethylene(10)octylphenyl ether/DMEM.
# Each of the thus-obtained supernatants and cell solubilized liquids was added to a 96-well plate (50 μL/well), and 2 mM p-nitrophenyl N-acetyl-β-D-glucosaminide (product of SIGMA) serving as a substrate was added thereto (50 μL/well). After incubation at 37° C. for two hours, a suppressor (1M Tris, pH: 9.0) was added thereto (150 μL/well), and the absorbance at 415 nm was measured by means of a plate reader. For assessing degranulation, percent β-hexosaminidase release (%) was calculated through the following formula: Percent β-hexosaminidase release (%)=100×(OD415 of supernatant)/(OD415 of supernatant+OD415 of solubilized cells).
# The β-hexosaminidase activity of supernatant was determined as described above. The β-hexosaminidase activity of a supernatant of basophil-like cells (RBL-2H3) incubated in the presence of each of the test substances of Examples 1 to 6 and Comparative Examples 1 to 3) was measured, whereby 50% β-hexosaminidase release inhibitory concentration (IC50) was calculated.
row,SMILES,IC50 [µM]
1,"O=C1C=CC(=O)c2ccccc21 [1,4-Naphthoquione, 1,4-naphthoquinone]",29.8
2,"O=C(O)c1cc(O)c2ccccc2c1O [DHNA, 1,4-dihydroxy-2-naphthoic acid]",41
3,"CC1=CC(=O)c2ccccc2C1=O [Vitamin K3, 2-methyl-1,4-naphthoquinone]",66.8
4,"Cc1cc(N)c2ccccc2c1O [Vitamin K5, 4-amino-2-methyl-1-naphthol]",29.2
